{
  "sequences": {"note": "Chains of the proteins cited; added tags and fusions are not shown. Lines headed by an entry give the natural chain unless they say otherwise; changes in a name come on top.", "UniProt P42225": "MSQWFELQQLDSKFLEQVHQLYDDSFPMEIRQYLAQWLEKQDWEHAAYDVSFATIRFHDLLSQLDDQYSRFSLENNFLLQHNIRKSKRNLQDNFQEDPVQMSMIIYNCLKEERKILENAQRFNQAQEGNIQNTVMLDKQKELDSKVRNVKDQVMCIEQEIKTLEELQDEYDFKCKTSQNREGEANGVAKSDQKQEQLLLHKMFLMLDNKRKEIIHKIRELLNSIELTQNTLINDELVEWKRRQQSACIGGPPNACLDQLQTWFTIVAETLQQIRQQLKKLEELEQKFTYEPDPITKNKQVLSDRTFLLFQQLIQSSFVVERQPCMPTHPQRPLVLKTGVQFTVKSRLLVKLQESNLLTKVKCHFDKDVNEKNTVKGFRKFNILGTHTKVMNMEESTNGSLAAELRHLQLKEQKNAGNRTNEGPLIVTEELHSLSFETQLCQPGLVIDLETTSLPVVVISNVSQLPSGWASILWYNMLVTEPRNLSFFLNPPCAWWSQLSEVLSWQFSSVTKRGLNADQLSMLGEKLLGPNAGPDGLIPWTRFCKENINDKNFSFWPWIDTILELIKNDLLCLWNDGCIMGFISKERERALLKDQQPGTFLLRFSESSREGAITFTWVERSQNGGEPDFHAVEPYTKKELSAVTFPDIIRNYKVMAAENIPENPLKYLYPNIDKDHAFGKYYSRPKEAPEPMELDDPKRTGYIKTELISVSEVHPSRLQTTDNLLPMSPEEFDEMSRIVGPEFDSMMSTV"},
  "source": "paper PMC3603897",
  "target": "STAT1 (IFNγ-activated, GAF homodimer) (Mus musculus (BMDC)) (UniProt P42225)",
  "assay": "EMSA with supershift",
  "details": "IFNγ 100 ng/ml, strong at 30 min, supershifted by anti-STAT1, not by normal IgG; EMSA: LightShift binding buffer, 200 fmol probe, 1 ug poly(I)-poly(C), 2.5% glycerol, 50 mM KCl, 1 mM DTT, 1 mM EDTA, 20 min; protein in an extract; label: 5' biotin on both strands",
  "note": "Construct, isoform or probe ends are uncertain for at least one entry. At least one result comes from cells or an extract, where the contact may be indirect.",
  "data": [
    {"sequence": "CATTTCGGGGAAATCGATC (double strand) [Irf-1 promoter GAS probe]", "values": [
      {"measurement": "binding result", "result": "binds"}
    ]}
  ]
}
